# PubChem BioAssay AID328 (DTP/NCI, 2004)
# The list shows only some results of the screen, not a fair sample: it gathers tests that were run many times, whatever their T/C, doses with no T/C, and many T/C values between a quarter and a half above the control. Other doses and runs of a compound stand elsewhere. T/C gives the treated animals as a percentage of the vehicle group. Some doses have a count of surviving animals in place of a T/C: the source files T/C as zero there, which appears to mark a toxic dose or a test without result, not a measured value. Some doses without a T/C left all or most animals alive at the check, yet need not have been tolerated: the source hardly ever lists a survival T/C far under the control, and the zero likely stands for such cases as well. Survivors were counted at the toxicity check, usually on the fifth day, unless a day is given; later deaths do not show. Schedules are NCI's codes, read here as Q, the interval in days (D) or hours (H), X, the number of doses. Some structures stand for samples that the source files as different forms (salt, stereo form or complex); doses refer to the form tested. Some entries were tested several times; the values are given in rising order. Where survival is the endpoint, this PubChem deposit counts one and a half times the control or more as active, and values a quarter to a half above the control carry no call in these data; other NCI protocols may use other cut-offs. Some T/C values carry the count of animals alive at the toxicity check (mostly the fifth day); without a count, all were alive then. Additions like (4×) say how often a value occurs here.
# Test system: BDF1 mice, P388 leukemia ip, median survival T/C
# Test: NCI In Vivo Anticancer Drug Screen. Data for tumor model P388 Leukemia (intraperitoneal) in B6D2F1 (BDF1) mice
# Conditions: T/C endpoint: median survival time, higher T/C = longer survival
# Outline: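 T/C = treated-group survival ÷ vehicle-control survival; tumour transplanted into mice before dosing.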
# [1] = dose: 32.0 mg/kg/injection, schedule: Q01DX010 (ip), vehicle: saline
# [2] = dose: 100.0 mg/kg/injection, schedule: Q01DX009 (ip), vehicle: water
# [3] = dose: 100.0 mg/kg/injection, schedule: Q01DX009 (ip), vehicle: saline with Tween-80
# [4] = dose: 200.0 mg/kg/injection, schedule: Q01DX009 (ip), vehicle: saline with Tween-80
# [5] = dose: 120.0 mg/kg/injection, schedule: Q01DX010 (ip), vehicle: saline
structure (smiles),measurement,setting,value
O=C(Nc1ccc(C2=NCCN2)cc1)c1ccc(C(=O)Nc2ccc(C3=NCCN3)cc2)c(Cl)c1,T/C,"dose: 2.0 mg/kg/injection, schedule: Q01DX010 (ip), vehicle: water","123, 133, 141 (5×), 145 (2×), 150, 154 (3×), 162, 163 (4×), 168 (2×), 170 (2×), 172, 177, 180, 188 % of control"
same,T/C,"dose: 4.0 mg/kg/injection, schedule: Q01DX010 (ip), vehicle: saline","127, 138, 160, 170 % of control"
same,T/C,"dose: 4.0 mg/kg/injection, schedule: Q01DX010 (ip), vehicle: water","100, 146 (2×), 150, 154, 158, 163 (2×), 166, 168, 172 (3×), 173, 175 (3×), 177, 180, 181 (4×), 181 [5 of 6 alive], 190 (3×), 192, 195 (2×), 196, 200 (2×), 204, 205, 209, 245 % of control (2×)"
same,T/C,"dose: 8.0 mg/kg/injection, schedule: Q01DX010 (ip), vehicle: saline","161, 175, 190, 195 % of control"
same,T/C,"dose: 8.0 mg/kg/injection, schedule: Q01DX010 (ip), vehicle: water",145 % of control
same,T/C,"dose: 12.0 mg/kg/injection, schedule: Q01DX010 (ip), vehicle: water",145 % of control
same,T/C,"dose: 16.0 mg/kg/injection, schedule: Q01DX010 (ip), vehicle: saline","176, 190, 205, 220 % of control"
same,T/C,"dose: 16.0 mg/kg/injection, schedule: Q01DX010 (ip), vehicle: water, evaluated on day 30, list 1 of 2","191, 192, 207, 208 [5 of 6 alive], 212, 218, 220, 222 (2×), 225, 227, 229, 230, 231, 233 (2×), 236, 245 (2×), 250 (2×), 254, 259, 260, 270, 272 (3×), 275, 285, 333 % of control"
same,T/C,"dose: 16.0 mg/kg/injection, schedule: Q01DX010 (ip), vehicle: water, evaluated on day 30, list 2 of 2","184, 191, 200, 208 (2×), 214, 218, 222 (2×), 223, 225 [5 of 6 alive], 227, 229, 230 (2×), 231, 233, 236 (2×), 245, 250 (3×), 254, 259, 260, 272 (4×), 285, 300 % of control"
same,survivor count,"dose: 16.0 mg/kg/injection, schedule: Q01DX010 (ip), vehicle: water",6 of 6
same,T/C,"dose: 16.0 mg/kg/injection, schedule: Q01DX010 (ip), vehicle: water, run until all animals had died",150 and 180 % of control (2×)
same,T/C,"dose: 20.0 mg/kg/injection, schedule: Q01DX010 (ip), vehicle: water, evaluated on day 30",212 and 250 % of control
same,T/C,"dose: 20.0 mg/kg/injection, schedule: Q01DX010 (ip), vehicle: water, run until all animals had died","131, 200, 210 % of control"
same,T/C,[1],"140, 210, 247 % of control [5 of 6 alive]"
same,survivor count,[1],3 of 6
same,survivor count,"dose: 50.0 mg/kg/injection, schedule: Q01DX009 (ip), vehicle: saline with Tween-80",6 of 6
CC(=O)C(C)[P+](c1ccccc1)(c1ccccc1)c1ccccc1 (stereo not drawn),survivor count,"dose: 50.0 mg/kg/injection, schedule: Q01DX009 (ip), vehicle: water",2 of 6
same,survivor count,[2],0 of 6
OCC#CCO,survivor count,"dose: 100.0 mg/kg/injection, schedule: Q01DX001 (ip), vehicle: saline",2 of 6
same,survivor count,"dose: 200.0 mg/kg/injection, schedule: Q01DX001 (ip), vehicle: saline",0 of 6
same,survivor count,"dose: 400.0 mg/kg/injection, schedule: Q01DX001 (ip), vehicle: saline",0 of 6
COC(=O)Nc1cccc(NC(=O)C(=O)O)c1,survivor count,"dose: 200.0 mg/kg/injection, schedule: Q04DX003 (ip), vehicle: saline with Tween-80",3 of 6
Cc1cccc2cc3cccc[n+]3cc12,survivor count,"dose: 14.0 mg/kg/injection, schedule: Q01DX009 (ip), vehicle: saline",0 of 6
same,survivor count,"dose: 21.0 mg/kg/injection, schedule: Q01DX009 (ip), vehicle: saline",0 of 6
same,survivor count,"dose: 27.0 mg/kg/injection, schedule: Q04DX003 (ip), vehicle: saline",5 of 6
c1ccc(C(Nc2nccs2)Nc2nccs2)cc1,survivor count,[3],3 of 6
same,survivor count,[4],0 of 6
O=C1CN(CCN2CC(=O)NC(=O)C2)CC(=O)N1,T/C,"dose: 50.0 mg/kg/injection, schedule: Q01DX009 (ip), vehicle: steroid suspending solution",141 % of control
same,T/C,[5],138 % of control
same,survivor count,[5],6 of 6
same,survivor count,"dose: 240.0 mg/kg/injection, schedule: Q01DX010 (ip), vehicle: saline",3 of 6 and 6 of 6
same,T/C,"dose: 400.0 mg/kg/injection, schedule: Q04DX003 (ip), vehicle: steroid suspending solution",129 % of control
CN(C)C(CC(=O)c1ccccc1)C(=O)O (stereo not drawn),T/C,"dose: 100.0 mg/kg/injection, schedule: Q04DX003 (ip), vehicle: saline sonified",125 % of control
same,survivor count,"dose: 200.0 mg/kg/injection, schedule: Q04DX003 (ip), vehicle: saline sonified",0 of 6
O=[N+]([O-])c1ccc(N(CCO)CCO)c2c1no[n+]2[O-],T/C,"dose: 16.0 mg/kg/injection, schedule: Q04DX003 (ip), vehicle: saline with Tween-80",140 % of control
CC(C)S(=O)(=O)/C(Cl)=C(/Cl)C(Cl)=C(Cl)Cl,survivor count,"dose: 44.0 mg/kg/injection, schedule: Q01DX009 (ip), vehicle: Klucel (hydroxypropylcellulose) (HPC)",4 of 6
same,survivor count,"dose: 66.0 mg/kg/injection, schedule: Q01DX009 (ip), vehicle: Klucel (hydroxypropylcellulose) (HPC)",6 of 6
same,survivor count,"dose: 100.0 mg/kg/injection, schedule: Q01DX009 (ip), vehicle: Klucel (hydroxypropylcellulose) (HPC)",6 of 6
same,survivor count,"dose: 150.0 mg/kg/injection, schedule: Q01DX009 (ip), vehicle: Klucel (hydroxypropylcellulose) (HPC)",6 of 6
O=C(Nc1ccccc1C(=O)O)c1cc([N+](=O)[O-])cc([N+](=O)[O-])c1,T/C,[3],130 % of control
same,survivor count,[4],4 of 6
COc1cc(/C=C/C(=O)c2ccc3c(c2)OCO3)ccc1OCc1ccccc1,survivor count,[2],5 of 6
same,survivor count,"dose: 400.0 mg/kg/injection, schedule: Q01DX009 (ip), vehicle: water",4 of 6
CCOCc1nc2nc(Cl)c(Cl)nc2[nH]1,survivor count,[3],4 of 6
same,survivor count,"dose: 100.0 mg/kg/injection, schedule: Q04DX003 (ip), vehicle: saline with Tween-80",6 of 6
same,survivor count,[4],3 of 6
same,survivor count,"dose: 400.0 mg/kg/injection, schedule: Q01DX009 (ip), vehicle: saline with Tween-80",1 of 6
same,survivor count,"dose: 400.0 mg/kg/injection, schedule: Q04DX003 (ip), vehicle: saline with Tween-80",3 of 6
CC(=O)CC(C)=O.CC(=O)CC(C)=O.O=N[O-].O=N[O-].[Co],T/C,"dose: 100.0 mg/kg/injection, schedule: Q04DX002 (ip), vehicle: saline with Tween-80",126 and 127 % of control [5 of 6 alive]
same,survivor count,"dose: 200.0 mg/kg/injection, schedule: Q04DX002 (ip), vehicle: saline with Tween-80",0 of 6 and 2 of 6
same,survivor count,"dose: 400.0 mg/kg/injection, schedule: Q04DX002 (ip), vehicle: saline with Tween-80",0 of 6
CC[C@]12CN3CCc4c([nH]c5ccccc45)[C@@](C(=O)OC)(c4cc5c(cc4OC)N(C)[C@H]4[C@@](O)(C(=O)OC)[C@H](OC(C)=O)[C@]6(CC)C=CCN7CC[C@]54[C@@H]76)CC(C3)[C@H]1O2 (stereo partly drawn),T/C,"dose: 0.25 mg/kg/injection, schedule: Q01DX009 (ip), vehicle: saline",135 % of control
same,T/C,"dose: 0.75 mg/kg/injection, schedule: Q01DX009 (ip), vehicle: Klucel (hydroxypropylcellulose) (HPC)",146 % of control
same,T/C,"dose: 1.5 mg/kg/injection, schedule: Q01DX009 (ip), vehicle: Klucel (hydroxypropylcellulose) (HPC)",146 % of control
same,survivor count,"dose: 1.5 mg/kg/injection, schedule: Q01DX009 (ip), vehicle: none",6 of 6
same,T/C,"dose: 3.0 mg/kg/injection, schedule: Q01DX009 (ip), vehicle: Klucel (hydroxypropylcellulose) (HPC)",138 % of control
same,survivor count,"dose: 3.0 mg/kg/injection, schedule: Q01DX009 (ip), vehicle: none",6 of 6
same,survivor count,"dose: 4.0 mg/kg/injection, schedule: Q01DX009 (ip), vehicle: saline with Tween-80",5 of 6
same,survivor count,"dose: 6.0 mg/kg/injection, schedule: Q01DX009 (ip), vehicle: none",6 of 6
same,survivor count,"dose: 12.0 mg/kg/injection, schedule: Q01DX009 (ip), vehicle: none",6 of 6
same,survivor count,"dose: 24.0 mg/kg/injection, schedule: Q01DX009 (ip), vehicle: none",6 of 6
same,survivor count,"dose: 24.0 mg/kg/injection, schedule: Q01DX009 (ip), vehicle: saline",0 of 6
CC(=N\[O-])/C(C)=N/O.CC(=N\[O-])/C(C)=N/O.CCCc1ccncc1.[Cl-].[Cl-].[Rh+3],survivor count,"dose: 200.0 mg/kg/injection, schedule: Q01DX009 (ip), vehicle: saline",6 of 6
